Assay results as given in paper PMC10869362.

Target: detour:GFP (GFP-tagged detour, CG14435) (Drosophila) (UniProt Q9W3V3)
Test: affinity purification with mass spectrometry; GFP-Trap_MA beads on soluble extracts of S2 cells expressing detour:GFP or GFP alone, NP-40 lysis buffer, overnight at 4 °C, glycine pH 2.5 elution; three replicates, compared with GFP and with the input

| binding | Binder |
| --- | --- |
| binds | Vacuolar protein sorting 16A (Vps16A), endogenous in S2 cells (protein, UniProt Q9VHG1 1-833) MPIMYNTGEWFKVRPDYYRKVELATPDWPLDLDLEYMWVEVAPYGGPLAVTRDPTKLVPVKGNARPMIRIFDTTGREMGHILWNHGKLIAMGWSDMEELICIQENATVFVYDMFGREKESYSIGDEASVTKIVEGKVFQSSAGTGVAVMTTSGRVFLKQNSSKTERKLPDIPNSSMNCSCWEIVTEGRNSYCLLGRDREVIKLFPGETVGTITANLFEKPHERIIKISVSYNHQHLALYTNTGLLWLGSVDMRQKYCEFDTGRKDMPLQMEWIMNSDNSEADAVVISYPSYLLIVNRNADRSDFPYDPVMFLVAEMDGVRIITQSSHEIIQRLPKCVENIFAVNSQEPASYLFEAQKKFEEKSYKSDEYLSMCREKIDLAVSECIEAASYEFCPETQKSLLRTAYFGKGFIRNHNPDEYMRIMRILRVLNTLRHERIAMPITFKQFSHLNTEVILSRLVFRKHYAIAIQVAKHLNLPESWILEHWAYHKVMNDPNDTEVARKITEKFKNPSVEGISFCNIASKAHQAGRDDLAIKLLELESRASLHVPLLLKMRKFDRAVGSATQSGDTELITQVLLEMKMHMMLSNLHMTIRDHPLALNIYKKIMRESNRAGLYGIYNTEDDQKAIAEYHFQNAIETEGLESNLSMIGNAYAQGRCTLEAELCADTSRLIKLQKTLSTKYNVSLNGLSIHETIQELLLIGELKEAERIRSEFKVPDRRFWWLRILTLSSQHKWEELEKLAKSKKSPIGYDPFVEVCLKQDNVMEARKYIPRCRDNRRVVWYMRANLFNEAIDSAFEQRDVHSLFELQKNQAIVNNGTLLSKVCDCIAMLEGK |
| binds | light (lt), endogenous in S2 cells (protein, UniProt Q7PL76 1-841) MAKALPLISCDSWADSINEEDVEPKFKYHRLANDLKYMLNADVITCSAVHLKFLIFGTFRGRVCIFDHQGNSVYSNLSASERHTHQVAVNNIDVDHKGEYVATCSDDGKVNITGLFSSDNNHSLSFGKFIKVVSLEPDSKAHIKRFVVGDDKLILYERNLLKKLKPVELCSVEGSVLSICWHGNFIAWASHIGVRVYDLNERCSLGLIKWEVPPQERLENFRCHLRWSNKHTLLIGWVDTIRVCVIRKRNSIEASTGNLPVYIVDPISTFQTTFYVCGLAPLSAKQLVVLGFRKEKSSCFKALRPVLCVIEYKMNNSEEICTDSLTLRGFEEYTVNDYSLGGIIEENRFYIVAPKDIVVASLIETDDRIEWLIKHSKFEEAMELISANGGNVPVLSVAKLYINHLLALKKYDDAAKLCLRMLGNDKVLWEEEVFKFVKCQQLRSVSAYLPTSDECKLDPHVYEMVLYEFLKFDVCGFLNLIKEWPSHLYDGLAVINAIHDNFRKHYANQLLESLALLYSYQGDFESALRMYLKLQNKDVFQLIRRYELYDVISKLIIPLIQLDRDCAFEILLDKKKIKTEIVVHQLEHNQEYLYWYLDSLLKKDPSNVFQKKLISLYAIFDRNKLLPFLKRSKDYDIQEALVICKQENFYPEIVYLLGCMGGVEASEALNIIIHRIRDIEMAIEFCKEHDDSDLWNALINEFSKHPEIVTKVLDGIVDYFSPAVVVGKIKMGQNIPNLRQSLIKMLRHYNLQGEILSSAQQIQLNDYFEIHSEIVTTQRRGQQVSYEQLCSLCHRPVLMAGTHLYCIIRLECGHVYHKPCIQGELLKNCNECNLWKLTVGK |
| binds | deep orange (dor), endogenous in S2 cells (protein, UniProt Q24314 1-1002) MDTSMPNQPKFLPRIEHNSSGATANSYVATASGNPFETDEEDEIFSRHKMVLRVPSNCTGDLMHLAVSRNWLVCLLGTPERTTLLRFFLPRAIPPGEAVLEKYLSGSGYKITRMFLDPTGHHIIIALVPKSATAGVSPDFLYIHCLESPQAQQLKVRRIEKFKDHEITAVAFNPYHGNESSTGPILLGTSRGLIFETELNPAADGHVQRKQLYDLGLGRPKYPITGLKLLRVPNSSRYIIVVTSPECIYTFQETLKAEERSLQAIFAGYVSGVQEPHCEERKTDLTFSQLRFFAPPNSKYPKQWAWLCGEGIRVGELSIEANSAATLIGNTLINLDFEKTMHLSYGERRLNTPKAFVLTEYHAVLLYADHVRAICLLNQEQVYQEAFDEARVGKPLSIERDELTGSIYVYTVKTVFNLRVTREERNVWRIYLDKGQYELATAHAAEDPEHLQLVLCQRADAAFADGSYQVAADYYAETDKSFEEVCLKFMVLPDKRPIINYVKKRLSRVTTKPMETDELDEDKMNIIKALVIWLIDLYLIQINMPDKDEEWRSSWQTEYDEFMMEAHVLSCTRQNRETVRQLIAEHADPRNMAQFAIAIGDYDEVVAQQLKAECYAEALQTLINQRNPELFYKYAPELITRLPKPTVDALMAQGSRLEVEKLVPTLIIMENREQREQTQRYLEFAIYKLNTTNDAIHNFLLHLYAEHEPKLLMKYLEIQGRDESLVHYDIYYAHKVCTDLDVKEARVFLECMLRKWISAVDLALTFDMKLAKETASRPSDSKIRRKLWLRIAYHDIKGTNDVKKALNLLKECDLLRIEDLLPFFADFEKIDNFKEAICDALRDYNQRIQELQREMAETTEQTDRVTAELQQLRQHSLTVESQDTCEICEMMLLVKPFFIFICGHKFHSDCLEKHVVPLLTKEQCRRLGTLKQQLEAEVQTQAQPQSGALSKQQAMELQRKRAALKTEIEDILAADCLFCGLLISTIDQPFVDDWEQVNVEWE |

Results are given in words; binding and its absence hold for the method and conditions named. In cells and extracts the contact can be indirect. These calls come from enrichment with a bait or labelling near it, and not all partners need be listed.
